Results from paper PMC6420155.
Results are given in words; binding and its absence hold for the method and conditions named. In cells and extracts the contact can be indirect. A result given as binding can be weak or reduced; the word gives no strength.

By UniProt entry, the sequences of proteins in these tests, tags left out. Where a name states a change or a piece, a line headed by the entry shows the natural chain unless it says otherwise.
UniProt P08172: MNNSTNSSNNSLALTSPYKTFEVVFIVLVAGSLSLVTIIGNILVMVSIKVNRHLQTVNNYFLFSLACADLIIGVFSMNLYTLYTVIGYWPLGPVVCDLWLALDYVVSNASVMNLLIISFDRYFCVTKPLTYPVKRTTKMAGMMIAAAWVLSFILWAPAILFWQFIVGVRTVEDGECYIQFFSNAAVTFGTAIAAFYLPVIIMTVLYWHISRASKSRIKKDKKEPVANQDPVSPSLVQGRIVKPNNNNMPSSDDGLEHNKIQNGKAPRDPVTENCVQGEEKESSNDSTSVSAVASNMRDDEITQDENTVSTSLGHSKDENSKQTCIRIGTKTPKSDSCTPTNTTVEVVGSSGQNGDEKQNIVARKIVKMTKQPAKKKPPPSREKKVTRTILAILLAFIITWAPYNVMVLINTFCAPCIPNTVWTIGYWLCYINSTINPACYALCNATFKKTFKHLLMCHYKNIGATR
UniProt P21728: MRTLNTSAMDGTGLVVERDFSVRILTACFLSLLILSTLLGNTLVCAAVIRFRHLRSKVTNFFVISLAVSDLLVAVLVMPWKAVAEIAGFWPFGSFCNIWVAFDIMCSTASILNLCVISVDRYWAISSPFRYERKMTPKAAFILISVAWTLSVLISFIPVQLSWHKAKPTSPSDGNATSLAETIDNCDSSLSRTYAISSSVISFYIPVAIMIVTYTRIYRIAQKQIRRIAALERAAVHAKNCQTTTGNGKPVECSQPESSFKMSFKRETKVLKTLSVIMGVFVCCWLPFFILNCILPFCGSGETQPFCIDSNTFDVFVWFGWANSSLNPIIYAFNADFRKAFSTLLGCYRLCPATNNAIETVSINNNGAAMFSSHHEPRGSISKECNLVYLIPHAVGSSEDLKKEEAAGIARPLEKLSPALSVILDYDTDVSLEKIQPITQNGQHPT
UniProt P32120: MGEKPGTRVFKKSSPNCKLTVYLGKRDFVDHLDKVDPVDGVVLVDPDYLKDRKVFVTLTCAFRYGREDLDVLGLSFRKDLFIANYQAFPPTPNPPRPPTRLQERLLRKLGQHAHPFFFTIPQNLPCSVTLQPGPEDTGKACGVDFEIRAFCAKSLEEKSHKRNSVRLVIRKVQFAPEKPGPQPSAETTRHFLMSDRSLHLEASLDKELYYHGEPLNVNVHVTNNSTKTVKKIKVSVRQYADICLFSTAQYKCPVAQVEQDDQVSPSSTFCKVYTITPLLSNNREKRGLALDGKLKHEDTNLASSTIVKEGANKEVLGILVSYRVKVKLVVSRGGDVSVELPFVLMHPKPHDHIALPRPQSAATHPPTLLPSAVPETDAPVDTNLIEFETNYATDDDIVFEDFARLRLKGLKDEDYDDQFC

Assays:
[1] = target: M2 muscarinic acetylcholine receptor, C-terminally tagged with Renilla luciferase variant 8 (human) (UniProt P08172); assay: FRET or BRET; in-cell BRET in HEK293 arrestin-2/3 KO cells co-transfected with Venus-arrestin-3 (acceptor) and receptor-RLuc8 (donor); 10 uM agonist (carbachol for M2R, isoproterenol for β2AR, dopamine for D1R, quinpirole for D2R), 5 uM coelenterazine h; net BRET (with minus without agonist), average at 10 and 15 min and time course
[2] = target: dopamine D1 receptor, C-terminally tagged with Renilla luciferase variant 8 (human) (UniProt P21728); assay: as above

| Substance | binding [1] | binding [2] |
| --- | --- | --- |
| Venus-tagged arrestin-3 A87V base mutant (from UniProt P32120) | binds | binds |
| Venus-tagged arrestin-3 E157A (on the A87V background) (from UniProt P32120) | binds | binds |
| Venus-tagged arrestin-3 K313A (on the A87V background) (from UniProt P32120) | binds | binds |

Further lines, results first:

| binding [1] | binding [2] | Substance |
| --- | --- | --- |
| binds | binds | Venus-tagged arrestin-3 F245A (on the A87V background) (from UniProt P32120) |
| binds | binds | Venus-tagged arrestin-3 G65P (on the A87V background) (from UniProt P32120) |
| binds | binds | Venus-tagged arrestin-3 ΔG65 (on the A87V background) (from UniProt P32120) |
